Results on two compounds are retold here after PubChem BioAssay AID1259422 (The Scripps Research Institute Molecular Screening Center, 2018).

Structures are written as SMILES. This is a selection; strong and weak results do not stand in their true shares. The source made the active and inactive calls. No stated cut-off is given here; in the data, active means inhibition above about 32%; inactive means the rest.

The assay in a line: TEAD-YAP interaction inhibition, primary screen, TEAD-YAP interaction inhibitor project, luminescence, HEK-TIYL cells (AID 1259422).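 Further: 0% = median of test compound wells and 100% = reference inhibitor wells.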 To be noted: TEAD-Gal4/YAP UAS-luciferase luminescence, at 9.12 µM, active compounds read high.
`CCC(CO)Nc1ccc2ncc(-c3cccc(NC(C)=O)c3)n2n1` (configuration not stated): the inhibition is active: 75%.

As for `O=C(/C=C/c1ccccc1)Nc1cccc(O)c1`, the inhibition was active: 71.5%.
